Assay [1] addresses receptor-interacting serine-threonine kinase 1 (human (endogenous in HTR8/SVneo)) (UniProt Q13546). The experiment in a line: condition: only cells without GSK180736A (control group); co-IP; HTR8/SVneo cells without GSK180736A (control group); lysed in 50 mM Tris-Cl pH 7.5, 150 mM NaCl, 1 mM EDTA, 1% Triton X-100; 1 mg lysate with anti-RIPK1 or anti-RIPK3 antibody on Protein A/G magnetic beads; immunoblot. In general terms: In western blotting, separated proteins are transferred to a membrane and probed.

Sequences of proteins named here, by UniProt entry; tags and fusion partners are left off.
UniProt Q13546: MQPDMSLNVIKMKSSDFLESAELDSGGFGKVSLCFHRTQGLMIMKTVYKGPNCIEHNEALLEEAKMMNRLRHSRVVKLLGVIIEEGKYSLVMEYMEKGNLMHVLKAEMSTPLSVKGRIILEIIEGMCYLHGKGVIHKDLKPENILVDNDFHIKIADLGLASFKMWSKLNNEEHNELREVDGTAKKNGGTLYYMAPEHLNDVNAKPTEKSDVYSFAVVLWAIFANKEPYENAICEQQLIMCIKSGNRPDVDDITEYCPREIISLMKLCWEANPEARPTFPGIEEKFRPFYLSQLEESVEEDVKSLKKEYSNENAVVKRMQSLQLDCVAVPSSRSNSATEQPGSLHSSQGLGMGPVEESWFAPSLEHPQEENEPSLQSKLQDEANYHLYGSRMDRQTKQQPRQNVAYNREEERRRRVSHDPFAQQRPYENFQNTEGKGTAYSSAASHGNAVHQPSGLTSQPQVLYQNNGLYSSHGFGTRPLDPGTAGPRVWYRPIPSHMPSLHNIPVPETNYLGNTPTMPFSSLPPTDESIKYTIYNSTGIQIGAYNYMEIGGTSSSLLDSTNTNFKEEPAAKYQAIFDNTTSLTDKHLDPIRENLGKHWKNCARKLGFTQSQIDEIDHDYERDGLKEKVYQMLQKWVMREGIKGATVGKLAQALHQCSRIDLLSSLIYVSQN
UniProt Q9Y572: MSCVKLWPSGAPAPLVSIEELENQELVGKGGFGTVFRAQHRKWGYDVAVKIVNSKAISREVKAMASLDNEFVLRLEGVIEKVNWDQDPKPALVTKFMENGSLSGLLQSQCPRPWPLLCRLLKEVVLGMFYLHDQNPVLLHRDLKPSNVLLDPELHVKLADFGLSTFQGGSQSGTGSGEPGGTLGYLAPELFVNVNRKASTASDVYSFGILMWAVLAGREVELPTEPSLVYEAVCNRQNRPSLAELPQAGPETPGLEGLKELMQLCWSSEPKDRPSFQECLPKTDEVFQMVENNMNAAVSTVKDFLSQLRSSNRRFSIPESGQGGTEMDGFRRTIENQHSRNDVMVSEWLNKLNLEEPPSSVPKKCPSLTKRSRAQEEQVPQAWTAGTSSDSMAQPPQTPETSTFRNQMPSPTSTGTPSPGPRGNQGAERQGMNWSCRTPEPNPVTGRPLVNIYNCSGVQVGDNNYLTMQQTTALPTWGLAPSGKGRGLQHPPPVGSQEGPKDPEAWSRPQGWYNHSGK

For assay [2] the target is unchanged. Kind of assay: co-IP; HTR8/SVneo cells treated with GSK180736A; lysed in 50 mM Tris-Cl pH 7.5, 150 mM NaCl, 1 mM EDTA, 1% Triton X-100; 1 mg lysate with anti-RIPK1 or anti-RIPK3 antibody on Protein A/G magnetic beads; immunoblot.

Results are given in words; binding and its absence hold for the method and conditions named. Binding seen in cells or lysates may run through a third protein. Some entries that bind do so weakly or less than the wild type.

Take “receptor-interacting serine-threonine kinase 3 (from UniProt Q9Y572 1-518)”: the binding entry in assay [1] is listed as “no binding”; in assay [2], “binds”.

The record behind these values is paper PMC8670385.
